The record followed here is paper PMC12120064.

The chains behind the UniProt entries cited, without tags or fusion partners. Residues count along the entry.
UniProt P13688, residues 35-526: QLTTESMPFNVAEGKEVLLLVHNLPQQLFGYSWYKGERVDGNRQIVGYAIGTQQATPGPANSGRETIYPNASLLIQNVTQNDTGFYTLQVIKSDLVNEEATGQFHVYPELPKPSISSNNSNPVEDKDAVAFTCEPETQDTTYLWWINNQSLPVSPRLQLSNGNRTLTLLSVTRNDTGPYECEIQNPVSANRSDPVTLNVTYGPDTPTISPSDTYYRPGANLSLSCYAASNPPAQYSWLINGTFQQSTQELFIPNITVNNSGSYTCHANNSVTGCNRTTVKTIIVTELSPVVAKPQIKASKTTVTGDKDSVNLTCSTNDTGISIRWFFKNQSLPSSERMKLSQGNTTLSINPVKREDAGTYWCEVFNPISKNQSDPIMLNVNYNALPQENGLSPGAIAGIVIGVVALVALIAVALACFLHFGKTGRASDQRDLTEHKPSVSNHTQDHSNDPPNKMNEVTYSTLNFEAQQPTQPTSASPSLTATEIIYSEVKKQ
UniProt P21333: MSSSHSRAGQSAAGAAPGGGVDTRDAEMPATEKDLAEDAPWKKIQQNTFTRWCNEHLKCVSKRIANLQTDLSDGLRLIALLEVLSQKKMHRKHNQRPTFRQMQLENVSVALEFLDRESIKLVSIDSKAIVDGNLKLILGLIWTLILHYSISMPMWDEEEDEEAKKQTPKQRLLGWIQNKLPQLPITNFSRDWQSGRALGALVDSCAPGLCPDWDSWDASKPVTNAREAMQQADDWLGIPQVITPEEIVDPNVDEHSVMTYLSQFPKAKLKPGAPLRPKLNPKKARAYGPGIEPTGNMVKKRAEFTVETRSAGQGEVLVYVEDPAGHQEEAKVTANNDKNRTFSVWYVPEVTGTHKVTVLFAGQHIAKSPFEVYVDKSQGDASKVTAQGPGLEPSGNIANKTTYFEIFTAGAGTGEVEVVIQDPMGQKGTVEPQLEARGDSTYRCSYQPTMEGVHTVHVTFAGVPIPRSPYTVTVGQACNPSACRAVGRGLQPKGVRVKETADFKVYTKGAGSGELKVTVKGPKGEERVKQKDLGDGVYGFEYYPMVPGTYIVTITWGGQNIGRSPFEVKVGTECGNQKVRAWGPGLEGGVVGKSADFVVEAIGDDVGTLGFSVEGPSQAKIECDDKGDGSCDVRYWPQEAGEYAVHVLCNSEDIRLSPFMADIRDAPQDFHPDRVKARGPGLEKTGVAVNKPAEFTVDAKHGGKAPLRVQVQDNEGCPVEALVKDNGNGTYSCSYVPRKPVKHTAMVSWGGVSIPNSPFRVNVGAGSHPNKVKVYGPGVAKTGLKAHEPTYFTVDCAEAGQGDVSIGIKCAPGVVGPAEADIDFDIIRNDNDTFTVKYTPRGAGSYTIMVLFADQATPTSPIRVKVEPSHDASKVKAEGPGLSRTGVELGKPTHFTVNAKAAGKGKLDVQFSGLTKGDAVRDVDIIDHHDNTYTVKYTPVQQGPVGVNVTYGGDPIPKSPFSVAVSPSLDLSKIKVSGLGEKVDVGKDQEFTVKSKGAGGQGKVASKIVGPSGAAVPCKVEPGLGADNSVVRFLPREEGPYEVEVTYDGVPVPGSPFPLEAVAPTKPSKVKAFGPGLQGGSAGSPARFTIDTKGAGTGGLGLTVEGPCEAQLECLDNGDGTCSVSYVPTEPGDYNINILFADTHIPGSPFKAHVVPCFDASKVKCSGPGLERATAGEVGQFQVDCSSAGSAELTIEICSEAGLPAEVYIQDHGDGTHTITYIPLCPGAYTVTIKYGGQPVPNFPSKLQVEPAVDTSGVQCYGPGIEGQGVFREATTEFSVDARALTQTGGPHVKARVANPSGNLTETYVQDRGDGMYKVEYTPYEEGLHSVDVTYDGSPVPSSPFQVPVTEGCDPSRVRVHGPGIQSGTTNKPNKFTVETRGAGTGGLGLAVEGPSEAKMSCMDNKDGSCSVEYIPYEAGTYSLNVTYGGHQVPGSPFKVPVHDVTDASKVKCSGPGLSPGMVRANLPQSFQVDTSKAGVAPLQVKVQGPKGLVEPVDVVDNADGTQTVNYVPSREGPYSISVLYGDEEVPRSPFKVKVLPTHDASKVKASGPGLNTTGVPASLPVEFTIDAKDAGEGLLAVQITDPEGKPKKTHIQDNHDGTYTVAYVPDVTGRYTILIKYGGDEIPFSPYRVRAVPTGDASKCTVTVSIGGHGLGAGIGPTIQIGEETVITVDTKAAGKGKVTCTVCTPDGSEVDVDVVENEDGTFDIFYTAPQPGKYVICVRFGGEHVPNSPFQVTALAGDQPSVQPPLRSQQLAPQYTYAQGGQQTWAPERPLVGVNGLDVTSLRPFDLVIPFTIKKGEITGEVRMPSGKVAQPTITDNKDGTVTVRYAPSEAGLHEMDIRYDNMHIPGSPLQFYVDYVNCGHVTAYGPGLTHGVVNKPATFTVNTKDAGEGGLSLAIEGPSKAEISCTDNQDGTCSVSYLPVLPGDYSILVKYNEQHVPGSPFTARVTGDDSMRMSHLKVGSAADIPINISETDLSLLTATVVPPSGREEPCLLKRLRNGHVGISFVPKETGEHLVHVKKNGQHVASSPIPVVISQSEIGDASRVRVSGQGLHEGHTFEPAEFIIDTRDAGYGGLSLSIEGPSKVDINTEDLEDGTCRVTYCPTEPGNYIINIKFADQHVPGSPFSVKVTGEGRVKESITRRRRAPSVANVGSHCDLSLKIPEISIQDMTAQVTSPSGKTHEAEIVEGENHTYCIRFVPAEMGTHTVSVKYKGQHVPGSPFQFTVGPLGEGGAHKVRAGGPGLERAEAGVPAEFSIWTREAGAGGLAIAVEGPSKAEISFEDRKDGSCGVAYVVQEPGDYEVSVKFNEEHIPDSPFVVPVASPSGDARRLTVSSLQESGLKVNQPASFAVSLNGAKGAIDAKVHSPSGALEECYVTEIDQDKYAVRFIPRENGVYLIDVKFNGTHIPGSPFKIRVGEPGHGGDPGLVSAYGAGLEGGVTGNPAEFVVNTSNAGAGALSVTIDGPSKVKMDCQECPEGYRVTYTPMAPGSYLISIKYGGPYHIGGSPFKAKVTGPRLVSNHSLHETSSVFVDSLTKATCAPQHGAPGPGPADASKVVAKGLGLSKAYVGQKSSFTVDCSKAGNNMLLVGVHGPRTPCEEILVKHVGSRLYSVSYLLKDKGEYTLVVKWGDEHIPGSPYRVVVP
UniProt P40259, residues 29-229: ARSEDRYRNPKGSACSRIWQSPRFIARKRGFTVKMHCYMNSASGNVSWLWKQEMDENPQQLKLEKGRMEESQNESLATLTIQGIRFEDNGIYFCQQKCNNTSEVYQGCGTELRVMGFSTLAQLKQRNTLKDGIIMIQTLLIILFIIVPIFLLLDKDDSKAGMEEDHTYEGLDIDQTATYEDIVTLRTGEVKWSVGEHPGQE

No constants are given. Whether binding was seen depends on the method and setting. Binding seen in cells or lysates may run through a third protein. Some binding calls cover weakened binding; strength is not graded here.

Assay [1] deals with full-length CEACAM1-4L (wild type, reintroduced) (UniProt P13688). Description: co-IP; CEACAM1-knockout JEKO-1 cells reconstituted with 4L, Y493F/Y520F or ΔN CEACAM1, stimulated with 2 μg/ml anti-IgM for the indicated times; CEACAM1 immunoprecipitated, immunoblot; IP buffer 50 mM Tris-HCl, 150 mM NaCl, 1% Triton X-100, 2 mM EDTA. In general terms: Immunoblotting shows a protein as a band on a membrane.

For assay [2] the target is unchanged. Description: proximity ligation; CEACAM1-knockout JEKO-1 cells reconstituted with 4L, Y493F/Y520F or ΔN CEACAM1, fixed and permeabilised after BCR stimulation with anti-IgM; Duolink red.

For “filamin A (FLNA) (from UniProt P21333 1-2647)”, the binding result in assay [1] is “binds”.

Turning to CD79B (from UniProt P40259 29-229), the binding result in assay [1] and in assay [2] was “binds” each time.
